# Where a chain is given by its changes, count along the chain named. The list shows a part of the results. For some of these results: At the low end of the ranking the order means little.
# What was measured:
# Conditions in all cases: yeast three-hybrid, YBZ-1, SC-Leu-His + 0.5 mM 3-AT, 4 days
# [1] = target: T1, PUM1 PUF domain R3-FCV C935F + R936C + Q939V (UniProt Q14671)
# T1 sequence: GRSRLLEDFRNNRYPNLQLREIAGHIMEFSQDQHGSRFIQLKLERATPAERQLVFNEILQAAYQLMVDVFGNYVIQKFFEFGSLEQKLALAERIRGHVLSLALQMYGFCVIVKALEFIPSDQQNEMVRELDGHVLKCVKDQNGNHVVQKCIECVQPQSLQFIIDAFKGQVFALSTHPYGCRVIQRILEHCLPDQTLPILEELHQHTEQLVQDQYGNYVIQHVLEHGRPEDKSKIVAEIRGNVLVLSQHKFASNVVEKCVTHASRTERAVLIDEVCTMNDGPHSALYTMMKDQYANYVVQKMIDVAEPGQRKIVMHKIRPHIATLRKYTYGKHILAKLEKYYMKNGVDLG
# [2] = target: T2, PUM1 PUF domain R3-FIA C935F + R936I + Q939A (UniProt Q14671)
# T2 sequence: T1 sequence with C109I, V112A
# [3] = target: T3, PUM1 PUF domain R3-FIG C935F + R936I + Q939G (UniProt Q14671)
# T3 sequence: T1 sequence with C109I, V112G
# [4] = target: T4, PUM1 PUF domain R3-FRG C935F + Q939G (Homo sapiens) (UniProt Q14671)
# T4 sequence: T1 sequence with C109R, V112G
# [5] = target: T5, PUM1 PUF domain R3-FRL C935F + Q939L (Homo sapiens) (UniProt Q14671)
# T5 sequence: T1 sequence with C109R, V112L
# [6] = target: T6, PUM1 PUF domain R3-FRP C935F + Q939P (Homo sapiens) (UniProt Q14671)
# T6 sequence: T1 sequence with C109R, V112P
# [7] = target: T7, PUM1 PUF domain R3-FSE C935F + R936S + Q939E (UniProt Q14671)
# T7 sequence: T1 sequence with C109S, V112E
# [8] = target: T8, PUM1 PUF domain R3-FSG C935F + R936S + Q939G (Homo sapiens) (UniProt Q14671)
# T8 sequence: T1 sequence with C109S, V112G
# [9] = target: T9, PUM1 PUF domain R3-FSR C935F + R936S + Q939R (Homo sapiens) (UniProt Q14671)
# T9 sequence: T1 sequence with C109S, V112R
# [10] = target: T10, PUM1 PUF domain R3-FSS C935F + R936S + Q939S (UniProt Q14671)
# T10 sequence: T1 sequence with C109S, V112S
# [11] = target: T11, PUM1 PUF domain R3-GCD C935G + R936C + Q939D (Homo sapiens) (UniProt Q14671)
# T11 sequence: T1 sequence with F108G, V112D
# [12] = target: T12, PUM1 PUF domain R3-GCE C935G + R936C + Q939E (Homo sapiens) (UniProt Q14671)
# T12 sequence: T1 sequence with F108G, V112E
# [13] = target: T13, PUM1 PUF domain R3-GCF C935G + R936C + Q939F (Homo sapiens) (UniProt Q14671)
# T13 sequence: T1 sequence with F108G, V112F
# [14] = target: T14, PUM1 PUF domain R3-GFF C935G + R936F + Q939F (Homo sapiens) (UniProt Q14671)
# T14 sequence: T1 sequence with F108G, C109F, V112F
# [15] = target: T15, PUM1 PUF domain R3-GFG C935G + R936F + Q939G (Homo sapiens) (UniProt Q14671)
# T15 sequence: T1 sequence with F108G, C109F, V112G
# [16] = target: T16, PUM1 PUF domain R3-GFW C935G + R936F + Q939W (Homo sapiens) (UniProt Q14671)
# T16 sequence: T1 sequence with F108G, C109F, V112W
# [17] = target: T17, PUM1 PUF domain R3-GND C935G + R936N + Q939D (UniProt Q14671)
# T17 sequence: T1 sequence with F108G, C109N, V112D
# [18] = target: T18, PUM1 PUF domain R3-GPE C935G + R936P + Q939E (UniProt Q14671)
# T18 sequence: T1 sequence with F108G, C109P, V112E
# [19] = target: T19, PUM1 PUF domain R3-GPF C935G + R936P + Q939F (Homo sapiens) (UniProt Q14671)
# T19 sequence: T1 sequence with F108G, C109P, V112F
# [20] = target: T20, PUM1 PUF domain R3-GPW C935G + R936P + Q939W (Homo sapiens) (UniProt Q14671)
# T20 sequence: T1 sequence with F108G, C109P, V112W
# [21] = target: T21, PUM1 PUF domain R3-GRG C935G + Q939G (Homo sapiens) (UniProt Q14671)
# T21 sequence: T1 sequence with F108G, C109R, V112G
# [22] = target: T22, PUM1 PUF domain R3-GRH C935G + Q939H (Homo sapiens) (UniProt Q14671)
# T22 sequence: T1 sequence with F108G, C109R, V112H
# [23] = target: T23, PUM1 PUF domain R3-GRY C935G + Q939Y (Homo sapiens) (UniProt Q14671)
# T23 sequence: T1 sequence with F108G, C109R, V112Y
# [24] = target: T24, PUM1 PUF domain R3-GVE C935G + R936V + Q939E (UniProt Q14671)
# T24 sequence: T1 sequence with F108G, C109V, V112E
# [25] = target: T25, PUM1 PUF domain R3-GWF C935G + R936W + Q939F (Homo sapiens) (UniProt Q14671)
# T25 sequence: T1 sequence with F108G, C109W, V112F
# [26] = target: T26, PUM1 PUF domain R3-GWM C935G + R936W + Q939M (Homo sapiens) (UniProt Q14671)
# T26 sequence: T1 sequence with F108G, C109W, V112M
# [27] = target: T27, PUM1 PUF domain R3-IRC C935I + Q939C (Homo sapiens) (UniProt Q14671)
# T27 sequence: T1 sequence with F108I, C109R, V112C
# [28] = target: T28, PUM1 PUF domain R3-IRT C935I + Q939T (Homo sapiens) (UniProt Q14671)
# T28 sequence: T1 sequence with F108I, C109R, V112T
# [29] = target: T29, PUM1 PUF domain R3-IRV C935I + Q939V (Homo sapiens) (UniProt Q14671)
# T29 sequence: T1 sequence with F108I, C109R
# [30] = target: T30, PUM1 PUF domain R3-IWL C935I + R936W + Q939L (Homo sapiens) (UniProt Q14671)
# T30 sequence: T1 sequence with F108I, C109W, V112L
# [31] = target: T31, PUM1 PUF domain R3-LFL C935L + R936F + Q939L (Homo sapiens) (UniProt Q14671)
# T31 sequence: T1 sequence with F108L, C109F, V112L
sequence,measurement,setting,value
GGCUAGAACUAGUGGAUCCCCCGGCGCCCGGCGGCUCGAGCCCGGGUAAGUGUAAUUAGUCUGCAUGCCGCCGGGCGCCAUGCCUGCAGGUCGACUCUAGAAAACAUG,binding signal (log2 enrichment (interaction score)),[1],< -6.38
same,binding signal (log2 enrichment (interaction score)),[2],< -7.36
same,binding signal (log2 enrichment (interaction score)),[3],< -8.96
same,binding signal (log2 enrichment (interaction score)),[4],0
same,binding signal (log2 enrichment (interaction score)),[5],-0.12
same,binding signal (log2 enrichment (interaction score)),[6],-0.34
same,binding signal (log2 enrichment (interaction score)),[7],< -8
same,binding signal (log2 enrichment (interaction score)),[8],-1.31
same,binding signal (log2 enrichment (interaction score)),[9],0.73
same,binding signal (log2 enrichment (interaction score)),[10],-2.43
same,binding signal (log2 enrichment (interaction score)),[11],-0.01
same,binding signal (log2 enrichment (interaction score)),[12],-0.26
same,binding signal (log2 enrichment (interaction score)),[13],0.28
same,binding signal (log2 enrichment (interaction score)),[14],-0.57
same,binding signal (log2 enrichment (interaction score)),[15],-0.56
same,binding signal (log2 enrichment (interaction score)),[16],-1.17
same,binding signal (log2 enrichment (interaction score)),[17],-3.69
same,binding signal (log2 enrichment (interaction score)),[18],-5.35
same,binding signal (log2 enrichment (interaction score)),[19],-0.94
same,binding signal (log2 enrichment (interaction score)),[20],-0.41
same,binding signal (log2 enrichment (interaction score)),[21],-0.04
same,binding signal (log2 enrichment (interaction score)),[22],0.1
same,binding signal (log2 enrichment (interaction score)),[23],-1.26
same,binding signal (log2 enrichment (interaction score)),[24],< -10.5
same,binding signal (log2 enrichment (interaction score)),[25],0.27
same,binding signal (log2 enrichment (interaction score)),[26],-0.16
same,binding signal (log2 enrichment (interaction score)),[27],-1.98
same,binding signal (log2 enrichment (interaction score)),[28],-0.76
same,binding signal (log2 enrichment (interaction score)),[29],0.8
same,binding signal (log2 enrichment (interaction score)),[30],-1.43
same,binding signal (log2 enrichment (interaction score)),[31],-0.2

# Laid out differently: entries from further up
sequence | measurement | setting | value
GGCUAGAACUAGUGGAUCCCCCGGCGCCCGGCGGCUCGAGCCCGGGUAAGUGUAAUUAGUCUGCAUGCCGCCGGGCGCCAUGCCUGCAGGUCGACUCUAGAAAACAUG | binding signal (log2 enrichment (interaction score)) | [7] | < -8
same | binding signal (log2 enrichment (interaction score)) | [8] | -1.31
